Values of other authors in patent publication US11980701B2, “Joint implant with constant and continuous release of therapeutic agent” (Diffusion RX, Inc., priority 2021, dated 2024).
At least one structure is not confirmed: it was looked up by name or label, or the drawing left a doubt.

Tested on: cartilage
Settings: at low doses

For `C[C@H]1C[C@@H]2[C@H]([C@@H](O)C[C@@]3(C)[C@H]2CC[C@]3(O)C(=O)CO)[C@@]2(C)C=CC(=O)C=C12` [methylprednisolone], the “cartilage effect in in vivo studies” value is listed as “significant cartilage protection”.
